Data on 56 compounds can be found in paper PMC10235067, “Increased renal elimination of endogenous and synthetic pyrimidine nucleosides in concentrative nucleoside transporter 1 deficient mice” (Nature Communications, 2023).

The data set has as its system CNT1. The experiment in a line: Untargeted metabolomics of Slc28a1-/- vs Slc28a1+/+ mouse urine (24 h, ad libitum). The settings on record: Slc28a1-/- / Slc28a1+/+.

Where “and” joins values, the source holds several entries; their conditions need not be identical. Identical values can stand only once. Residues, ends and D or L forms follow the SMILES beside them.

As for `COc1cc2cc[nH]c2cc1O[C@@H]1O[C@H](C(=O)O)[C@@H](O)[C@H](O)[C@H]1O` [6-Hydroxy-5-methoxyindole glucuronide], the “Fold Change” value is reported as 32.653 and the “log2(FC)” value is on record as 5.0292.

Regarding `CC=CC(O)CCCCC(=O)OC(CC(=O)[O-])C[N+](C)(C)C` (centres unmarked) [6-Hydroxynon-7-enoylcarnitine], the “Fold Change” value is on record as 0.3764 and the “log2(FC)” value is recorded as -1.4097.

Turning to `C[C@]12CC[C@@H]3c4ccc(O)cc4C(=O)C[C@H]3[C@@H]1C[C@@H](O)[C@@H]2O` [6-Ketoestriol], the “Fold Change” value amounted to 0.6645 and the “log2(FC)” value is reported as -0.5897.

Consider `O=C1CCCC(C2CC(CO)C3CC(O)CCN3C2)N1` (centres unmarked) [6-[8-Hydroxy-1-(hydroxymethyl)octahydro-2H-quinolizin-3-yl]-2-piperidinone], for which the “Fold Change” value is 8.603 and the “log2(FC)” value amounted to 3.1048.

Consider `O=c1cc(-c2ccc(O)cc2)oc2cc(O)ccc12` [7,4'-Dihydroxyflavone], for which the “Fold Change” value is on record as 0.09391 and the “log2(FC)” value is given as -3.4126.

Turning to `Cc1cc2ccc(=O)oc2cc1O` [7-Hydroxy-6-methyl-2H-1-benzopyran-2-one], the “Fold Change” value worked out at 0.01617 and the “log2(FC)” value is on record as -5.9507.

Turning to `Cn1cnc2nc[nH]c(=O)c21` [7-Methylhypoxanthine], the “Fold Change” value worked out at 1.5058 and the “log2(FC)” value stood at 0.5906.

Take `CC(O)=CCCCCC(=O)NCC(=O)O` [7-hydroxyoct-6-enoylglycine]: the “Fold Change” value is 3.2696 and the “log2(FC)” value was found to be 1.7091.

As for `C=C(O)CCCCCC(=O)NCC(=O)O` [7-hydroxyoct-7-enoylglycine], the “Fold Change” value amounted to 1.9653 and the “log2(FC)” value was 0.9748.

Take `C[C@]12CC[C@@H]3c4ccc(O)cc4C[C@@H](O)[C@H]3[C@@H]1CC[C@@H]2O` [7alpha-hydroxyestradiol]: the “Fold Change” value is recorded as 22.256 and the “log2(FC)” value was determined as 4.4761.

In the case of `CCCCC[C@H](O)/C=C/[C@H]1CCC(=O)[C@@H]1CCCCCCC(=O)O` [11-Deoxy-PGE1], the “Fold Change” value was determined as 1417.4 and the “log2(FC)” value turned out to be 10.469.

`C[C@]12CCC(=O)C=C1CC[C@@H]1[C@@H]2CC[C@@]2(C)[C@H]1CC[C@]2(O)C(=O)CO` [11-Deoxycortisol]: the “Fold Change” value came to 21.853 and the “log2(FC)” value is 4.4498.

With `C=CCCCCCCCCCC(=O)O` [11-Dodecenoic acid], the “Fold Change” value is 0.1304 and the “log2(FC)” value is reported as -2.9388.

Turning to `COC(=O)[C@@H]1[C@H]2C[C@H]3c4[nH]c5cc(O)ccc5c4CCN3C[C@@H]2CC[C@@H]1O` [11-Hydroxyyohimbine], the “Fold Change” value stood at 0.04706 and the “log2(FC)” value is -4.4092.

`C[C@]12CCC(=O)C=C1CC[C@@H]1[C@@H]2[C@@H](O)C[C@@]2(C=O)[C@H]1CC[C@]2(O)C(=O)CO` [18-Oxocortisol]: the “Fold Change” value was found to be 19178 and the “log2(FC)” value was 14.227.

Take `CC/C=C/C=C/C=C\CC(=O)OC(CC(=O)[O-])C[N+](C)(C)C` (centres unmarked) [(3Z,5E,7E)-Decatrienoylcarnitine]: the “Fold Change” value is 2E+00 and 2.2575; the “log2(FC)” value is 1.2 and 1.1747.

As for `CCC/C=C\CCCCC(O)CC(=O)OC(CC(=O)[O-])C[N+](C)(C)C` (centres unmarked) [(8Z)-3-Hydroxydodec-8-enoylcarnitine], the “Fold Change” value is 4E+00 and 4.4617; the “log2(FC)” value was 2.2 and 2.1576.

For `C[C@]1(C(=O)O)CCC[C@]2(C)c3cc(O)ccc3CC[C@@H]12` [(+)-podocarpic acid], the “Fold Change” value is 0.7291 and the “log2(FC)” value is -0.4558.

As for `C=C/C=C\CCCC` [(Z)-1,3-Octadiene], the “Fold Change” value is 3E-01 and 0.2575; the “log2(FC)” value is -2.0 and -1.9576.

As to `CC(=O)N[C@@H](CS)C(=O)O` [Acetylcysteine], the “Fold Change” value was 2E-01 and 0.2203; the “log2(FC)” value is -2.2 and -2.1827.

Consider `Nc1ncnc2[nH]cnc12` [Adenine], for which the “Fold Change” value is listed as 2.0324 and the “log2(FC)” value came to 1.0232.

Regarding `CCCCCOC(=O)c1ccccc1O` [Amyl salicylate], the “Fold Change” value is reported as 0.5439 and the “log2(FC)” value is reported as -0.8785.

Regarding `CCOC(=O)[C@@H](N)CCCN=C(N)N` [Arginine, ethyl ester], the “Fold Change” value is on record as 1.6362 and the “log2(FC)” value is given as 0.7104.

As for `CCCC(N)N` [Butane-1,1-diamine], the “Fold Change” value is 3E-01 and 0.266; the “log2(FC)” value is -1.9 and -1.9103.

For `C/C=C/C/C=C/CCC(=O)[C@H]1O[C@H]1C(N)=O` [Cerulenin], the “Fold Change” value stood at 1.3724 and the “log2(FC)” value turned out to be 0.4567.

`COc1ccc([C@@H]2[C@@H](O)[C@H](O)[C@@H](C)N2C)cc1OC` [Codonopsine]: the “Fold Change” value amounted to 2.3874 and the “log2(FC)” value came to 1.2554.

Regarding `O=C1CCCCC1` [Cyclohexanone], the “Fold Change” value is 4E-01 and 0.4381; the “log2(FC)” value is -1.2 and -1.1905.

Turning to `O=C1CCCC1` [Cyclopentanone], the “Fold Change” value is 4E-01 and 0.4495; the “log2(FC)” value was -1.2 and -1.1538.

In the case of `Nc1cc[nH]c(=O)n1` [Cytosine], the “Fold Change” value was determined as 1.6366 and the “log2(FC)” value stood at 0.7107.

Consider `C[C@@H](O)[C@@H](O)c1cnc2nc(N)[nH]c(=O)c2n1` [D-Biopterin], for which the “Fold Change” value came out at 21.907 and the “log2(FC)” value is 4.4533.

With `O=C(O)[C@@H](O)[C@H]1OC(=O)[C@H](O)[C@H]1O` [D-Glucaro-1,4-lactone], the “Fold Change” value worked out at 0.4359 and the “log2(FC)” value was -1.1978.

With `C[N+](C)(C)CC(CC(=O)[O-])OC(=O)CCCCCC=CCC(=O)O` (centres unmarked) [Dec-7-enedioylcarnitine], the “Fold Change” value stood at 2.1023 and the “log2(FC)” value is reported as 1.072.

Turning to `C[N+](C)(C)CC(CC(=O)[O-])OC(=O)CC=CC=CC=CCC(=O)O` (centres unmarked) [Deca-3,5,7-trienedioylcarnitine], the “Fold Change” value is listed as 3.0771 and the “log2(FC)” value is recorded as 1.6216.

As for `O=C1OC(C(O)CO)C(=O)C1=O` (centres unmarked) [Dehydroascorbic acid], the “Fold Change” value came to 0.4128 and the “log2(FC)” value is listed as -1.2765.

`Nc1ccn([C@H]2C[C@H](O)[C@@H](CO)O2)c(=O)n1` [Deoxycytidine]: the “Fold Change” value was found to be 2.6792 and the “log2(FC)” value was determined as 1.4218.

On to `CCC1(CC)COC(=O)NC1=O` [Diethadione], for which the “Fold Change” value was 0.3094 and the “log2(FC)” value is -1.6924.

On to `C[C@H](O)[C@H](O)C1=Nc2c(nc(N)[nH]c2=O)NC1` [Dihydrobiopterin], for which the “Fold Change” value came out at 1.9833 and the “log2(FC)” value was found to be 0.9879.

`C/C=C/C(=O)OC(C)(C)Cc1ccccc1` [Dimethylbenzyl carbinyl crotonate]: the “Fold Change” value came out at 45.402 and the “log2(FC)” value turned out to be 5.5047.

On to `CCCCCCCCCCCCC/C=C/[C@@H](O)[C@H](CO)N(C)C` [Dimethylsphingosine], for which the “Fold Change” value is 5.3643 and the “log2(FC)” value was 2.4234.

With `CC=CC=CC=CCCCCC(=O)OC(CC(=O)[O-])C[N+](C)(C)C` (centres unmarked) [Dodeca-6,8,10-trienoylcarnitine], the “Fold Change” value is reported as 5.2723 and the “log2(FC)” value worked out at 2.3984.

`NCCC1=CC(=O)C(=O)C=C1` [Dopamine quinone]: the “Fold Change” value came out at 0.7898 and the “log2(FC)” value is listed as -0.3404.

As for `N[C@@H](CC1=CC(=O)C(=O)C=C1)C(=O)O` [Dopaquinone], the “Fold Change” value turned out to be 0.1521 and the “log2(FC)” value is on record as -2.7173.

As for `Cn1cnc2nc(N)[nH]c(=O)c21` [Epiguanine], the “Fold Change” value is on record as 1.3975 and the “log2(FC)” value was determined as 0.4829.

As for `C[C@]12CC[C@@H]3c4ccc(O)cc4CC[C@H]3[C@@H]1C[C@@H](O)[C@@H]2O` [Estriol], the “log2(FC)” value is -1.9 and -1.8773.

In the case of `CC[C@H](C)[C@H](NC(=O)[C@@H](N)CCC(=O)O)C(=O)O` [Glutamylisoleucine] (H-Glu-Ile-OH), the “Fold Change” value is 4E+00 and 4.1736; the “log2(FC)” value was 2.1 and 2.0613.

Regarding `CSCC[C@H](NC(=O)[C@@H](N)CCC(=O)O)C(=O)O` [Glutamylmethionine] (H-Glu-Met-OH), the “Fold Change” value was 2E-02 and 0.01803; the “log2(FC)” value is -5.8 and -5.7934.

In the case of `Nc1nc2c(ncn2[C@@H]2O[C@H](CO)[C@@H](O)[C@H]2O)c(=O)[nH]1` [Guanosine], the “Fold Change” value turned out to be 2.0075 and the “log2(FC)” value stood at 1.0054.

With `CCCCCCC(=O)OC(CC(=O)[O-])C[N+](C)(C)C` (centres unmarked) [Heptanoylcarnitine], the “Fold Change” value is given as 13.376 and the “log2(FC)” value stood at 3.7416.

As to `C[N+](C)(C)C[C@@H](CC(=O)[O-])OC(=O)CCCCCCCCCCCCCCC(=O)O` [Hexadecanedioic acid mono-L-carnitine ester], the “Fold Change” value is listed as 37.25 and the “log2(FC)” value amounted to 5.2192.

Take `CCCCCCOC(=O)CCC(=O)CN` [Hexaminolevulinate]: the “Fold Change” value is on record as 1.4859 and the “log2(FC)” value is on record as 0.5713.

Take `CCCCCC(=O)NCC(=O)O` [Hexanoylglycine]: the “Fold Change” value amounted to 0.4503 and the “log2(FC)” value was -1.1509.

For the compound `N[C@@H](Cc1cnc[nH]1)C(=O)N[C@@H](Cc1ccc(O)cc1)C(=O)O` [Histidyltyrosine] (H-His-Tyr-OH), the “Fold Change” value is 0.0967 and the “log2(FC)” value is given as -3.3703.

As for `CC(=O)OCCc1ccc(O)c(O)c1` [Hydroxy Tyrosol -Acetate], the “Fold Change” value is listed as 7.1643 and the “log2(FC)” value turned out to be 2.8408.

On to `O=C(Cc1c[nH]c2ccccc12)O[C@@H]1O[C@H](C(=O)O)[C@@H](O)[C@H](O)[C@H]1O` [Indole-3-acetic-acid-O-glucuronide], for which the “log2(FC)” value is -1.7 and -1.6799.

With `c1ccc2[nH]ccc2c1` [Indole], the “Fold Change” value was found to be 46.866 and the “log2(FC)” value came to 5.5505.

Consider `c1ccc2c(c1)CCN2` [Indoline], for which the “Fold Change” value came to 1.3203 and the “log2(FC)” value is recorded as 0.4008.
